Assay results as given in patent publication US8383602B2, “Use of TRIM72 as a target for muscle and heart enhancer” (Korea University Industrial & Academic Collaborative …, priority 2007, dated 2013).
For at least one compound, name, drawing or mass did not settle the structure.

Tests used:
TRIM72 promoter [1] = assay: MyoD-dependent TRIM72 promoter-luciferase activity in myoblasts, pharmacological inhibitors; assay type: cell-based; details: agents treated 24 hours, FIG. 14B
Procedure: (§1) A. CEMI promoter-luciferase fused gene having E2 and E3 was expressed in C2C12 myoblasts for 24 hours and muscle differentiation into myotubes was induced for 24 hours. While inducing muscle differentiation, PI3K inhibitor (LY294002, 10 μM), mTOR inhibitor (rapamycin, 100 nM), GSK3β inhibitor (LiCl, 5 mM) and MAPK inhibitor (PD98059, 10 μM) were treated and luciferase activity was measured. B. CEMI promoter-luciferase fused gene having E2 and E3 and MyoD gene were expressed in C2C12 myoblasts for 24 hours. After treating with various agents for 24 hours, luciferase activity was measured. C. […] After inducing muscle differentiation into myotubes for 24 hours, luciferase activity was measured. […] After inducing differentiation for 24 hours, luciferase activity was measured.
(§2) IRS-1 constructs (full-length, 1-3729; PH-PTB domain, 1-900; Mid-region, 880-2608; Rear-region, 2581-3729) and TRIM72 cDNA constructs (full-length, 1-1431; ΔRING, 181-1431; coiled-coil, 367-1020; CCSPRY, 367-1431; SPRY, 687-1431; Δcoiled-coil) were generated by PCR using the primers described in Table 1 and cloned into pCMV-Tag2B vector and pCMV-3Tag4a vector (Stratagene), respectively. […] Luciferase activity in cell lysates was measured by using the luciferase assay system (Promega) in a Luminoskan Ascent (Thermo Labsystem). […]

TRIM72 promoter [2] = assay: TRIM72 promoter-luciferase activity during muscle differentiation, pharmacological inhibitors; assay type: cell-based; details: rapamycin 100 nM, LiCl 5 mM, FIG. 14A
Procedure: as §1, §2

Structure (SMILES)	MyoD-dependent TRIM72 transcription in myoblasts (TRIM72 promoter [1])	change of TRIM72 transcription in IGF-I induced muscle differentiation (TRIM72 promoter [2])
CO[C@H]1C[C@@H]2CC[C@@H](C)[C@@](O)(O2)C(=O)C(=O)N2CCCC[C@H]2C(=O)O[C@H]([C@H](C)C[C@@H]2CC[C@@H](O)[C@H](OC)C2)CC(=O)[C@H](C)/C=C(\C)[C@@H](O)[C@@H](OC)C(=O)[C@H](C)C[C@H](C)/C=C/C=C/C=C/1C [rapamycin]	not affected	no change
O=c1cc(N2CCOCC2)oc2c(-c3ccccc3)cccc12 [LY294002]	decreased	–
